PubChem BioAssay AID1053208 | Peter MacCallum Cancer Centre – 2014

- Screen: 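Synthetic lethal interactions between gene loss and doxorubicin in osteosarcoma cells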 (primary screen)
- Cell system: mouse osteosarcoma cells, early-passage culture from an engineered mouse model of fibroblastic bone tumour
- Knock-down reagent: siRNA pool against mouse genes, 40 nM
- Time to read-out: about 120 h (48 h before drug, then 72 h with drug)
- Challenge: doxorubicin 100 nM for 72 h, roughly 30-40% inhibitory dose
- Measurement: 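Viability read as ATP luminescence after 72 h of 100 nM doxorubicin or none, duplicate wells averaged, scaled to non-targeting siRNA, then expressed as robust z-scores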
- Reading the numbers: viability z-score with doxorubicin and doxorubicin viability vs non-targeting: higher = more viable cells under doxorubicin; viability z-score without drug: higher = more viable cells with knock-down alone; z-score of drug to no-drug ratio: higher = less drug sensitisation by knock-down
- Rule for the call: 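a pool counts as active when its viability z-score with doxorubicin is -2 or below and its z-score without drug lies between -2 and 2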
This is an unselected part of about 17,000 reagents tested. In the full data, 788 (4.7%) were called active. 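Calls rest on z-score classes alone; an extra cut-off of viability at most 70% of control was not applied to them.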 Some reagents were tested in more than one well and are listed for each.

| gene | combined z-score class | viability z-score with doxorubicin | viability z-score without drug | z-score of drug to no-drug ratio | doxorubicin viability vs non-targeting | Call |
| --- | --- | --- | --- | --- | --- | --- |
| Kank1 | no change with or without drug | -0.67 | 0.51 | -0.9 | 0.88 | inactive |
| Rgmb | no change with or without drug | 1.35 | 0.51 | 1.12 | 1.06 | inactive |
| Sgf29 | low cell count without drug only | -1.8 | -2.87 | 0.22 | 0.78 | inactive |
| Rpl39l | no change with or without drug | -1.12 | 0.51 | -1.35 | 0.84 | inactive |
| Nat3 | low cell count with doxorubicin only | -2.25 | -0.84 | -1.8 | 0.74 | active |
| Xlr4c | no change with or without drug | 0.34 | -0.51 | 0.79 | 0.97 | inactive |
| Slc28a3 | no change with or without drug | 1.46 | 1.85 | 0.34 | 1.07 | inactive |
| Hspb2 | high cell count with doxorubicin only | 2.47 | -0.84 | 3.48 | 1.16 | inactive |
| Slc22a13b | no change with or without drug | -0.22 | 0.67 | -0.56 | 0.92 | inactive |
| Gnat1 | no change with or without drug | 1.35 | 1.85 | 0.22 | 1.06 | inactive |
| Lgals6 | no change with or without drug | 0.67 | 0.34 | 0.56 | 1 | inactive |
| Eloa | high cell count without drug only | 0.22 | 2.87 | -1.35 | 0.96 | inactive |
| Utp25 | no change with or without drug | 0.22 | -0.84 | 1.01 | 0.96 | inactive |
| Atcay | no change with or without drug | 0.22 | -0.51 | 0.67 | 0.96 | inactive |
| Or4f6 | no change with or without drug | -0.45 | -1.35 | 0.56 | 0.9 | inactive |
| Folr1 | no change with or without drug | 0.9 | 1.01 | 0.34 | 1.02 | inactive |
| Fxyd1 | no change with or without drug | -0.11 | -0.17 | 0.11 | 0.93 | inactive |
| Proc | no change with or without drug | 0.67 | 0.17 | 0.67 | 1 | inactive |
| Dhx40 | no change with or without drug | 0 | 0.51 | -0.22 | 0.94 | inactive |
| Tnfrsf19 | no change with or without drug | 0.22 | 1.52 | -0.67 | 0.96 | inactive |
| Xdh | no change with or without drug | -1.69 | -1.18 | -0.9 | 0.79 | inactive |
| Arl13b | no change with or without drug | 0 | 1.52 | -0.9 | 0.94 | inactive |
| Crlf2 | no change with or without drug | 0 | 0.67 | -0.34 | 0.94 | inactive |
| Or8b57 | no change with or without drug | -0.79 | -0.51 | -0.34 | 0.87 | inactive |
| Pld5 | no change with or without drug | 0.22 | 1.52 | -0.67 | 0.96 | inactive |

An excerpt from above, showing only “viability z-score with doxorubicin”:
Kank1 = -0.67
Rgmb = 1.35
Sgf29 = -1.8
Rpl39l = -1.12
Nat3 = -2.25
Xlr4c = 0.34
Slc28a3 = 1.46
Hspb2 = 2.47

Additional entries follow:
| gene | combined z-score class | viability z-score with doxorubicin | viability z-score without drug | z-score of drug to no-drug ratio | doxorubicin viability vs non-targeting | Call |
| --- | --- | --- | --- | --- | --- | --- |
| Nudt16l1 | no change with or without drug | 0 | 1.52 | -0.9 | 0.94 | inactive |
| Crb3 | no change with or without drug | 0.67 | 0 | 0.79 | 1 | inactive |
| Cacybp | no change with or without drug | 0.9 | 1.35 | 0.11 | 1.02 | inactive |
| Or4a68 | no change with or without drug | 1.12 | 0.34 | 1.01 | 1.04 | inactive |
| Prkcd | no change with or without drug | 1.8 | 1.52 | 0.9 | 1.1 | inactive |
| Pts | no change with or without drug | -0.34 | -0.51 | 0.11 | 0.91 | inactive |
| Col5a2 | no change with or without drug | 1.12 | 1.85 | 0 | 1.04 | inactive |
| Ccnq | no change with or without drug | -1.12 | 1.18 | -1.8 | 0.84 | inactive |
| D930046H04Rik | high cell count without drug only | -0.67 | 2.19 | -1.91 | 0.88 | inactive |
| Capns1 | no change with or without drug | 0.45 | 0.84 | 0 | 0.98 | inactive |
| Tab1 | no change with or without drug | 0.22 | -0.84 | 1.01 | 0.96 | inactive |
| Pmf1 | no change with or without drug | -0.22 | 0.17 | -0.22 | 0.92 | inactive |
| Gpr119 | no change with or without drug | 0.45 | -1.85 | 2.14 | 0.98 | inactive |
| Gpr119 | low cell count without drug only | -0.22 | -2.02 | 1.46 | 0.92 | inactive |
| Fkbp4 | no change with or without drug | -1.46 | -0.67 | -1.01 | 0.81 | inactive |
| Or5k17 | no change with or without drug | -1.12 | -0.84 | -0.56 | 0.84 | inactive |
| Stk38l | no change with or without drug | -1.35 | -1.69 | -0.22 | 0.82 | inactive |
| Phldb2 | low cell count with doxorubicin only | -5.06 | -0.17 | -5.17 | 0.49 | active |
| Tmem62 | no change with or without drug | 0.9 | 0.51 | 0.67 | 1.02 | inactive |
| Cdc42 | low cell count without drug only | -0.9 | -2.19 | 0.79 | 0.86 | inactive |
| Ifi203 | no change with or without drug | -0.67 | 0.17 | -0.67 | 0.88 | inactive |
| Surf1 | no change with or without drug | 1.91 | 0.34 | 1.8 | 1.11 | inactive |
| Depdc7 | no change with or without drug | 0 | -0.51 | 0.45 | 0.94 | inactive |
| Atp5pb | no change with or without drug | -1.35 | -1.18 | -0.56 | 0.82 | inactive |
| Shpk | no change with or without drug | 0 | 0.51 | -0.22 | 0.94 | inactive |
